No constants are given. Whether binding was seen depends on the method and setting. In cells and extracts the contact can be indirect. These calls come from enrichment with a bait or labelling near it, and not all partners need be listed.
Biological target: YBX1, endogenous (human (endogenous in Huh7 and HepG2)) (UniProt P67809)
Assay: affinity purification with mass spectrometry; IP of endogenous YBX1 with anti-YBX1 (IgG as control) from Huh7 and HepG2 lysates, silver staining, bands excised, MS/MS (4D label free/DIA)

Protein sequences, listed by entry. Tags and fused reporters are not part of them.
UniProt P67809: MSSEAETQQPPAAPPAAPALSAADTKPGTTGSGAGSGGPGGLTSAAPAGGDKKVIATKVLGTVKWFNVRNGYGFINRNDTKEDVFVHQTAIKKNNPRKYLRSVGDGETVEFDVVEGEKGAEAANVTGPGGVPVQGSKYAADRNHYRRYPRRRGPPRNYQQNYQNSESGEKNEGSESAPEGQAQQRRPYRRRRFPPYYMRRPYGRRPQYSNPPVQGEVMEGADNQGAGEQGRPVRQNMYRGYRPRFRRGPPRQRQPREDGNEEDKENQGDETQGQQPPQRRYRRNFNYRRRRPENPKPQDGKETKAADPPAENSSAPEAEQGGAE
UniProt Q04637: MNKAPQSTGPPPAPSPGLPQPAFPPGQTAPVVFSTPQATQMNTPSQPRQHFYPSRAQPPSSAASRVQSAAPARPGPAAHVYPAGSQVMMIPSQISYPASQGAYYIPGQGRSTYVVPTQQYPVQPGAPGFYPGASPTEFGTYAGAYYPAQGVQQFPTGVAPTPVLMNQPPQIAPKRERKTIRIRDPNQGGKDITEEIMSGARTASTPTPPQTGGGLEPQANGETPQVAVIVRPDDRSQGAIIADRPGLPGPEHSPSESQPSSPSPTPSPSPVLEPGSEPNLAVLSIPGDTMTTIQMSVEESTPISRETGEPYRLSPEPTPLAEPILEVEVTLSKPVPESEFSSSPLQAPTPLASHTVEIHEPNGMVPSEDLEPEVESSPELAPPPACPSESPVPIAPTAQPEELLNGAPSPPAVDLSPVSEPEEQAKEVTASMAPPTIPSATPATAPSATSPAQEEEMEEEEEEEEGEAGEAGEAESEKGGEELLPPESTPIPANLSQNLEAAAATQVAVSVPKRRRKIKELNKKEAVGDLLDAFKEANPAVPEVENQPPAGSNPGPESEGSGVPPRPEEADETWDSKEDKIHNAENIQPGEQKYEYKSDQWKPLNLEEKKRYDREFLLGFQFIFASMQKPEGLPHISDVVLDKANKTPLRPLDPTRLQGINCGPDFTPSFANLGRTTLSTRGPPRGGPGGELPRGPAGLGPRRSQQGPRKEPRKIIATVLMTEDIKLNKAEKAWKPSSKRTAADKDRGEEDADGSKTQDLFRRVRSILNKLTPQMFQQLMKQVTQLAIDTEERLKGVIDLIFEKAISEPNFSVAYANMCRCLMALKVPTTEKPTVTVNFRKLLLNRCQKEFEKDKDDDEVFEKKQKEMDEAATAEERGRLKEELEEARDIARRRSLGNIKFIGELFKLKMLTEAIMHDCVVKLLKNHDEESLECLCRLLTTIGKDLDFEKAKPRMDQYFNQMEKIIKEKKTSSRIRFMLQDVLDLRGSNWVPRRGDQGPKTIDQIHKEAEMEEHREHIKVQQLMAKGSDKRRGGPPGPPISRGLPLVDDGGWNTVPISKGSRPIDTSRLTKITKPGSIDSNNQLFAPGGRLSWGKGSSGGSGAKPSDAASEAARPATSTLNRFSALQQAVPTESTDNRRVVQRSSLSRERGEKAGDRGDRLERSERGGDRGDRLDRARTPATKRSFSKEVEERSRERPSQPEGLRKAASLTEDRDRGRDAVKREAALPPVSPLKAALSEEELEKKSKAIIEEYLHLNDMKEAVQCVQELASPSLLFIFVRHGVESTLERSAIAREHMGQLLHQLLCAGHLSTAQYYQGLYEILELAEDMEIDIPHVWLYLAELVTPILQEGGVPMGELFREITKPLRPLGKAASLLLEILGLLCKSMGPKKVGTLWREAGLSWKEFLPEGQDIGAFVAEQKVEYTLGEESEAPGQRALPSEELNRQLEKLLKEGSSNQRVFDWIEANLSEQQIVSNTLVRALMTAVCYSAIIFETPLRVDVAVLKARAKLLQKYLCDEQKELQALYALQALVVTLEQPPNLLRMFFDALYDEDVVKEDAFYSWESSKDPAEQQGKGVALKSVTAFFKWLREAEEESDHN
UniProt P38919: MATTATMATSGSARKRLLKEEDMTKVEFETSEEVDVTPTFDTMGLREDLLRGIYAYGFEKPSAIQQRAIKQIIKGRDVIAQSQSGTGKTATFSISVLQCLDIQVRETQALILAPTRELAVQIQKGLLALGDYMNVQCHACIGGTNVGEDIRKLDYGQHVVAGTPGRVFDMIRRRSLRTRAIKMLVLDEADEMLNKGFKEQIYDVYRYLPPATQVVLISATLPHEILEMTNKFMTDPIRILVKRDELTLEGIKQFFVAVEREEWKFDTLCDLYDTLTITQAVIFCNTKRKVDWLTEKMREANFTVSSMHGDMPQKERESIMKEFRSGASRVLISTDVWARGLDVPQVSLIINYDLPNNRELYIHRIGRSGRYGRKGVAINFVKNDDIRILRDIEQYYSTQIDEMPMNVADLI
UniProt P60842: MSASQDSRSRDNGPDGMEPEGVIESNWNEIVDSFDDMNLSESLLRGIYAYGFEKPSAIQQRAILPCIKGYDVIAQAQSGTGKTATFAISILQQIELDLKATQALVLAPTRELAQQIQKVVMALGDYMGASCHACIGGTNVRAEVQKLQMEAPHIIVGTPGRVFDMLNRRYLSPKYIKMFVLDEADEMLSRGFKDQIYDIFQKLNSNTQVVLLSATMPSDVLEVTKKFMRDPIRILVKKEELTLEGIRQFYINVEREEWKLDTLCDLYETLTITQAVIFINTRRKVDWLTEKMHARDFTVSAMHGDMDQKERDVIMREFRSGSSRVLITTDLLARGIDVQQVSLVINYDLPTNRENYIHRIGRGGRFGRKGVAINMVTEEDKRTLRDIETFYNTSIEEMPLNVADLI

| binding | Substance |
| --- | --- |
| binds weakly | EIF4G1, endogenous (from UniProt Q04637 1-1599) |
| binds | EIF4A3, endogenous (from UniProt P38919 1-411) |
| binds | Eukaryotic Translation Initiation Factor 4A1 (EIF4A1), endogenous (from UniProt P60842 1-406) |
